Test results: the supplement of paper PMC12823440, “Inhibitors supercharge kinase turnover through native proteolytic circuits” (Nature, 2025)
Structures can show the parent of a compound that is named as a salt. Some of the results follow. The calls rarely recur for the same compound in another form.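 Kinases, fused to nanoluciferase, were expressed in K562 cells; luminescence was measured every 4 h from 2 to 18 h as percent of control (DMSO = 100%, positive control = 0%). A time point is decreased if signal falls significantly (2 sigma). Hits were called by the authors by a rule that is not shown; the count of time points alone does not decide it.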

Protein sequences, listed by entry. Tags and fused reporters are not part of them. Lines headed by an entry give the natural chain unless they say otherwise; changes in a name come on top.
UniProt Q8IWU2: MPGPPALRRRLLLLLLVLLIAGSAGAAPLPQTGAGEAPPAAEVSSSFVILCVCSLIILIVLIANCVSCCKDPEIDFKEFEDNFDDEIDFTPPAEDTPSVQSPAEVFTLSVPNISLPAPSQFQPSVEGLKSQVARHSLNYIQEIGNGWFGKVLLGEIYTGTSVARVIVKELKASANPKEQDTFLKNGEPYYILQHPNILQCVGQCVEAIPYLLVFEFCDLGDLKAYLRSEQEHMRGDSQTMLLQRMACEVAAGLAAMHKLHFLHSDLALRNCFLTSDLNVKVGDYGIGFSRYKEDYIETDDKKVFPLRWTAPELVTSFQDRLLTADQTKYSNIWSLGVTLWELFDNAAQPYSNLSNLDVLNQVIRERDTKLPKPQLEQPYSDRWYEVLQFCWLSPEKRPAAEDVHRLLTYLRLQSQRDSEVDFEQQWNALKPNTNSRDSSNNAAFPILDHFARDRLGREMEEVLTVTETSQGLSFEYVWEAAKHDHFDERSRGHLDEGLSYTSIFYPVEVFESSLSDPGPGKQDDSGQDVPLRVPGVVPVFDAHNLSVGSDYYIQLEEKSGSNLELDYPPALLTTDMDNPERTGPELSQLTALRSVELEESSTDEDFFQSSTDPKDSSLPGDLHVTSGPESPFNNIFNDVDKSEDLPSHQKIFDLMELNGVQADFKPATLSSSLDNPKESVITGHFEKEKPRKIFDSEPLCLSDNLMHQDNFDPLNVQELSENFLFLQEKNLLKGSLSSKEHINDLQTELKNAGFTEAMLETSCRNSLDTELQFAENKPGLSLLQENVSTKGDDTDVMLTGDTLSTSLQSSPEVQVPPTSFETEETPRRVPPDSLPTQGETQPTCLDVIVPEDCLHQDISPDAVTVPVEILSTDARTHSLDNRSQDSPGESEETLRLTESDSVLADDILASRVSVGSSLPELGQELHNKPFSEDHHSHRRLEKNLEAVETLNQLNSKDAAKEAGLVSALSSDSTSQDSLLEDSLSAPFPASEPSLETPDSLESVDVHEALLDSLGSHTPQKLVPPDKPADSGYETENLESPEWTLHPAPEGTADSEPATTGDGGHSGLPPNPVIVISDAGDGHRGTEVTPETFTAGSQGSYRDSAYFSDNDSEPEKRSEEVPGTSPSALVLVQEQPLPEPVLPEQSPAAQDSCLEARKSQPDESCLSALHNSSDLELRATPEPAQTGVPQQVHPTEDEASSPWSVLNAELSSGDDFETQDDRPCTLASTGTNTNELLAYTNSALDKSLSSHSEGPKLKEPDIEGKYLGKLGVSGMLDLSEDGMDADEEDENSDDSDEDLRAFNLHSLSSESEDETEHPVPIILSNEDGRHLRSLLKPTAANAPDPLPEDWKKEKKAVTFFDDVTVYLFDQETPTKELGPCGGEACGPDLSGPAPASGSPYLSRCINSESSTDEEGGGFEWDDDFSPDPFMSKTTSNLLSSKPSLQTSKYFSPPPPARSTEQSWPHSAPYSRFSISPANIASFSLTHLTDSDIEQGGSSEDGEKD
UniProt P07948: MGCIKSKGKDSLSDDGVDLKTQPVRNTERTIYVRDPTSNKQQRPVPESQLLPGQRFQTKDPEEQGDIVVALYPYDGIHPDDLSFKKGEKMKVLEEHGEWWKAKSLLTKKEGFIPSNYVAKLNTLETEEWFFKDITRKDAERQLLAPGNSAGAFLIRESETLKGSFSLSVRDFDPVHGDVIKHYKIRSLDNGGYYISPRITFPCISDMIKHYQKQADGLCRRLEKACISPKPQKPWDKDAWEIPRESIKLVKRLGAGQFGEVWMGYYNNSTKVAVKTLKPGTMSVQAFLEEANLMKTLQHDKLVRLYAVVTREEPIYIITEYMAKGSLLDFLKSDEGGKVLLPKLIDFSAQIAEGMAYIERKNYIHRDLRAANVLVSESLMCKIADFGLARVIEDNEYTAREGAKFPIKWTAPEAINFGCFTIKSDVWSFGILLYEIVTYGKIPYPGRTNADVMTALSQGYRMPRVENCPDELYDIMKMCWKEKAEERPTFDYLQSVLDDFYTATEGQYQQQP
UniProt Q12851: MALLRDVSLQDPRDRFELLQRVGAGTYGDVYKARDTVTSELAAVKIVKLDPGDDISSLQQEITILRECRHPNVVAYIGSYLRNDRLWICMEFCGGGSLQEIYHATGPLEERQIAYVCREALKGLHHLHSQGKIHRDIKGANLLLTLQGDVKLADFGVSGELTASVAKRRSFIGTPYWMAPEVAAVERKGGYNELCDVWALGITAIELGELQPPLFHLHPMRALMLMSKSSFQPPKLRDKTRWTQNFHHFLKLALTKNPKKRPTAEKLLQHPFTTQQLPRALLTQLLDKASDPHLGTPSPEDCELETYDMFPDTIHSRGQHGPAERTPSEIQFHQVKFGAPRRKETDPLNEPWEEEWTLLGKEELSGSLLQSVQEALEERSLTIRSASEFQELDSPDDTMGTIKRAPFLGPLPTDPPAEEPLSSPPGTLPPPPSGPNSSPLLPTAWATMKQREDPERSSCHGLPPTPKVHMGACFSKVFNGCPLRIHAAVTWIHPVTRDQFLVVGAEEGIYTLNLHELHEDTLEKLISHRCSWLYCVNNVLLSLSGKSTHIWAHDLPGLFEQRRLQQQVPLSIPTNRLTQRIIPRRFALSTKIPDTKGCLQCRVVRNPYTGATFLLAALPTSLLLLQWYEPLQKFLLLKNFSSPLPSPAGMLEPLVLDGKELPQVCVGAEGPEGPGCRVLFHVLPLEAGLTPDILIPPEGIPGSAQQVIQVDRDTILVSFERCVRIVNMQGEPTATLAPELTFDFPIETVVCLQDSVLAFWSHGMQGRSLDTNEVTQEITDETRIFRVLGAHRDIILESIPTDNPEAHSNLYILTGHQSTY
UniProt P28482, whole entry: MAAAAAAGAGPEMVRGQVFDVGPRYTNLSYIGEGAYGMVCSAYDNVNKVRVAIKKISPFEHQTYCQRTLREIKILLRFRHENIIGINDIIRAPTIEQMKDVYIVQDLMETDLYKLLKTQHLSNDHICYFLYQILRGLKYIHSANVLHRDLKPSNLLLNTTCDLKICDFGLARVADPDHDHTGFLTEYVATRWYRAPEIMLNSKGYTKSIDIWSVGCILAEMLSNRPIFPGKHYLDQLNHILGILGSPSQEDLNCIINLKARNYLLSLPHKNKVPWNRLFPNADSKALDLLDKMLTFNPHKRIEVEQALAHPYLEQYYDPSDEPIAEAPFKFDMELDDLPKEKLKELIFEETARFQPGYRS
UniProt P31152, whole entry: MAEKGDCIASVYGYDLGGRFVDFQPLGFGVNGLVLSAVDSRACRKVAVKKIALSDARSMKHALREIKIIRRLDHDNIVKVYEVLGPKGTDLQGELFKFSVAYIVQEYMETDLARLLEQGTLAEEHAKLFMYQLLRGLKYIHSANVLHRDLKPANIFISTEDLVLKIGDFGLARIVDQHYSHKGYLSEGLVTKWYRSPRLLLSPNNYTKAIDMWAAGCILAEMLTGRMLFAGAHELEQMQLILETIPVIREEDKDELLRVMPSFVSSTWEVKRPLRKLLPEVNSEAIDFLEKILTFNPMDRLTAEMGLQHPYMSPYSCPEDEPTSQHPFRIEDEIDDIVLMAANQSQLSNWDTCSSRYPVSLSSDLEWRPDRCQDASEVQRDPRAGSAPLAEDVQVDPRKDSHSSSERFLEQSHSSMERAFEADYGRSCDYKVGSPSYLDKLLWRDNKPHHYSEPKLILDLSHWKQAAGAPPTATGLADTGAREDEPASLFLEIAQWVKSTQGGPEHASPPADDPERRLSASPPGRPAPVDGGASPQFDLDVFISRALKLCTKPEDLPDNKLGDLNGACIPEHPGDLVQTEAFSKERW
UniProt P49137, whole entry, looked up: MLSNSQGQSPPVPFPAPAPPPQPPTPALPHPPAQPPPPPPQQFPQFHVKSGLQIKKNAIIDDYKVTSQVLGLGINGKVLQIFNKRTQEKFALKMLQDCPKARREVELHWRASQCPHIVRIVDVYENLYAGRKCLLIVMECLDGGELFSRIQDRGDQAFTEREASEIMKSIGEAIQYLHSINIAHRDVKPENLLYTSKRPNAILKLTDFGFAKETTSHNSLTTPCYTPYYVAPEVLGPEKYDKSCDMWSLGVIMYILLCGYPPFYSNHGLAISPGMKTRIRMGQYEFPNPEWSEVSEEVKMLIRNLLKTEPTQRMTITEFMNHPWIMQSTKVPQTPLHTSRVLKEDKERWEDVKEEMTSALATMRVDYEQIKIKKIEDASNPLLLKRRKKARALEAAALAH
UniProt Q9BUB5: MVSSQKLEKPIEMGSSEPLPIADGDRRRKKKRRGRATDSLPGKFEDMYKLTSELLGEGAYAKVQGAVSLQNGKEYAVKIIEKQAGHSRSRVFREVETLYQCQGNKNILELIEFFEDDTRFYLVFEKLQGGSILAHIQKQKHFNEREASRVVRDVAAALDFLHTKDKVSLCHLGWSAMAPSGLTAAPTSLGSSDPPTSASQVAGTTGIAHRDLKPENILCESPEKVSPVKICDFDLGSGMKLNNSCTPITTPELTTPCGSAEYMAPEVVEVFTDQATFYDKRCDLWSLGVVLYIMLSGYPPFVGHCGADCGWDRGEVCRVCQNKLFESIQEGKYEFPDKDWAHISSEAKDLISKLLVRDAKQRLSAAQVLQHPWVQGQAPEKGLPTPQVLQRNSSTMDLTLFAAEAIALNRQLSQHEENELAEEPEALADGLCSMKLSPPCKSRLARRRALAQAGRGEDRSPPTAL
UniProt Q16620, whole entry, looked up: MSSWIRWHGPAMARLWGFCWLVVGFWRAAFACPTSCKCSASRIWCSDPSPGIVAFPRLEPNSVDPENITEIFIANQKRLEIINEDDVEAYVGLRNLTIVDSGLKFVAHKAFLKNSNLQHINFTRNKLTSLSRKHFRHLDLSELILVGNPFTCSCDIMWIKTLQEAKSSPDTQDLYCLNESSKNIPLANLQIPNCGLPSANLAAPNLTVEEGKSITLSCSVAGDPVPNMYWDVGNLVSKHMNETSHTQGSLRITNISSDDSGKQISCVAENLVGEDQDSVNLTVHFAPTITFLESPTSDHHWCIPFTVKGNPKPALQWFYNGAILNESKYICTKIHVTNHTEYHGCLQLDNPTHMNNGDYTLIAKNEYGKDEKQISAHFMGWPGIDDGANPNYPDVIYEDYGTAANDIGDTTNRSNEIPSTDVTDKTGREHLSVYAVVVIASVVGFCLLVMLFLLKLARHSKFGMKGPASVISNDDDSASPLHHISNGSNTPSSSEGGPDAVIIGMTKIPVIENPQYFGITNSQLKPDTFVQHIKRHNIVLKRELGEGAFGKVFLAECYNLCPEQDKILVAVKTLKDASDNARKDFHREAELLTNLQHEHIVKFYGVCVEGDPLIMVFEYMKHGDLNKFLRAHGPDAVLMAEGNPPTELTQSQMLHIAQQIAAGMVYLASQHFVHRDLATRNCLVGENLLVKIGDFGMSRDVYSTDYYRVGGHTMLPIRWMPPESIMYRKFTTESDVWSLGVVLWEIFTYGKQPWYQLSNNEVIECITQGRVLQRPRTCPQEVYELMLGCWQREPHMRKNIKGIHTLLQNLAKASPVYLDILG

Key:
Assay in all cases: number of time points (of 5) at which kinase-Nluc abundance scored as decreased, DMSO-normalised (count); higher = more persistent destabilization
Settings in all cases: K562; 2-18 h
[1] = biological target: LMTK2 (UniProt Q8IWU2)
[2] = biological target: LYN (UniProt P07948)
[3] = biological target: MAP2K1 (UniProt Q02750)
[4] = biological target: MAP2K2 (UniProt P36507)
[5] = biological target: MAP4K2 (UniProt Q12851)
[6] = biological target: MAPK1 (UniProt P28482)
[7] = biological target: MAPK4 (UniProt P31152)
[8] = biological target: MAPKAPK2 (UniProt P49137)
[9] = biological target: MKNK1 (UniProt Q9BUB5)
[10] = biological target: NTRK2 (UniProt Q16620)

| SMILES | number of time points [1] | number of time points [2] | number of time points [3] | number of time points [4] | number of time points [5] | number of time points [6] | number of time points [7] | number of time points [8] | number of time points [9] | number of time points [10] |
| --- | --- | --- | --- | --- | --- | --- | --- | --- | --- | --- |
| CCc1c(C(=O)NNC(=O)C(O)c2cc(F)cc(F)c2)ccc(O)c1C (stereo not given) (10 µM) | 0 | 0 | 0 | 0 | 0 | 0 | 0 | 0 | 0 | 0 |
| Cc1ccc(C(=O)Nc2ccc(Oc3cc4cnn(C)c4cc3-c3cn[nH]c3)c(F)c2)c(=O)n1-c1ccc(F)cc1 [Merestinib dihydrochloride] (2.5 µM) | 0 | 0 | 0 | 0 | 0 | 0 | 0 | 0 | 0 | 0 |
| CC[C@@H](Oc1nc(Oc2cc(C)cc(-c3cccc(CN)c3)c2)c(F)cc1F)C(=O)O (10 µM) | 0 | 0 | 0 | 0 | 0 | 0 | 0 | 0 | 0 | 0 |
| COc1cc(Nc2ncc(F)c(Nc3ccc4c(n3)NC(=O)C(C)(C)O4)n2)cc(OC)c1OC [R406 (free base)] (10 µM) | 0 | 0 | 0 | 0 | 0 | 0 | 0 | 0 | 0 | 0 |
| CNc1nc(Nc2ccc(C(=O)N3CCOCC3)cc2OC)nc2[nH]cc(Cl)c12 (2.5 µM) | 0 | 0 | 0 | 0 | 0 | 0 | 0 | 0 | 0 | 0 |
| Cc1cccc(Oc2cnc(=O)[nH]c2)c1 [Tolimidone] (10 µM) | 0 | 0 | 0 | 0 | 0 | 0 | 0 | 0 | 0 | 0 |
| Cn1cnc(Cn2ccc3ccc(CNCc4[nH]c5ccccc5c4[C@H]4NC(=O)c5ccc(O)cc54)cc32)c1 (10 µM) | 0 | 0 | 0 | 0 | 0 | 0 | 0 | 0 | 0 | 0 |
| Cc1ccc(CNc2ncnc3ccc(-c4ccc(CO)o4)cc23)o1 (10 µM) | 0 | 0 | 0 | 0 | 0 | 0 | 0 | 0 | 0 | 0 |
| Cc1[nH]c(/C=C2\C(=O)Nc3ccccc32)c(C)c1CCC(=O)O [(Z)-Orantinib] (10 µM) | 0 | 0 | 0 | 0 | 0 | 0 | 0 | 0 | 0 | 0 |
| CN(CC(=O)N(Cc1ccc(C2CCCCC2)cc1)c1ccc(C(=O)NO)cc1)S(=O)(=O)c1c(F)c(F)c(F)c(F)c1F (2.5 µM) | 0 | 0 | 0 | 0 | 0 | 0 | 0 | 0 | 0 | 0 |
| Cc1ccccc1-c1c2nccc(-c3ccc(F)cc3F)c2cc[n+]1[O-] (10 µM) | 0 | 0 | 0 | 0 | 0 | 0 | 0 | 0 | 0 | 0 |
| Cn1cnc2c(F)c(Nc3ccc(Br)cc3Cl)c(C(=O)NOCCO)cc21 [Selumetinib] (10 µM) | 0 | 0 | 0 | 0 | 0 | 0 | 0 | 0 | 0 | 0 |
| CNC(=O)c1c(F)cccc1Nc1nc(Nc2cc3c(cc2OC)CCN3C(=O)CN(C)C)nc2[nH]ccc12 (10 µM) | 0 | 0 | 0 | 0 | 0 | 0 | 0 | 0 | 0 | 0 |
| COc1cc(Nc2ncc(F)c(Nc3ccc4c(n3)N(COP(=O)(O)O)C(=O)C(C)(C)O4)n2)cc(OC)c1OC [Fostamatinib Disodium] (10 µM) | 0 | 0 | 0 | 0 | 0 | 0 | 0 | 0 | 0 | 0 |
| Nc1ncnc2c1c(-c1cccc(OCc3ccccc3)c1)cn2C1CC(CN2CCC2)C1 (stereo not given) (2.5 µM) | 0 | 0 | 0 | 0 | 0 | 0 | 0 | 0 | 0 | 0 |
| S=C(SSC(=S)N1CCOCC1)N1CCOCC1 (10 µM) | 3 | 0 | 0 | 0 | 0 | 0 | 0 | 1 | 0 | 0 |
| Cc1cc(Nc2ncnc3ccc(NC4=NC(C)(C)CO4)cc23)ccc1Oc1ccn2ncnc2c1 [Tucatinib] (2.5 µM) | 0 | 0 | 0 | 0 | 0 | 0 | 0 | 0 | 0 | 0 |
| COc1ccc2c(OCc3nnc4ccc(-c5ccccc5)nn34)ccnc2c1 (2 µM) | 0 | 0 | 0 | 0 | 0 | 0 | 0 | 0 | 0 | 0 |
| CCN1CCN(Cc2ccc(Nc3ncc(F)c(-c4cc(F)c5nc(C)n(C(C)C)c5c4)n3)nc2)CC1 [Abemaciclib (methanesulfonate)] (10 µM) | 3 | 0 | 0 | 0 | 0 | 0 | 0 | 0 | 0 | 4 |

| SMILES | number of time points [1] | number of time points [2] | number of time points [3] | number of time points [4] | number of time points [5] | number of time points [6] | number of time points [7] | number of time points [8] | number of time points [9] | number of time points [10] |
| --- | --- | --- | --- | --- | --- | --- | --- | --- | --- | --- |
| CN(C)CCSSCCNC(=O)C1CCN(C(=O)CSc2ccc(Cl)cc2)CC1 (10 µM) | 0 | 0 | 0 | 0 | 0 | 0 | 0 | 0 | 0 | 0 |
| Cc1[nH]c(/C=C2\C(=O)Nc3ccccc32)c(C)c1CCC(=O)O [Orantinib] (10 µM) | 0 | 0 | 0 | 0 | 0 | 0 | 0 | 0 | 0 | 0 |
| CCN1CCC(n2cc(CNc3cc(Cl)c4ncc(C#N)c(Nc5ccc(F)c(Cl)c5)c4c3)nn2)CC1 [Cot inhibitor-2] (2.5 µM) | 0 | 0 | 0 | 0 | 0 | 0 | 0 | 0 | 0 | 0 |
| CN1C(=O)N[C@H](Cc2c[nH]c3c(Cl)cccc23)C1=O [Necrostatin 2] (10 µM) | 0 | 0 | 0 | 0 | 0 | 0 | 0 | 0 | 0 | 0 |
| Cc1cccc(-c2[nH]ncc2-c2ccc(F)c(-c3cnn(CCO)c3)c2)n1 (10 µM) | 0 | 0 | 0 | 0 | 0 | 0 | 0 | 0 | 0 | 0 |
| CC#CC(=O)Nc1ccc2ncnc(Nc3cccc(Br)c3)c2c1 (10 µM) | 0 | 0 | 0 | 0 | 0 | 0 | 0 | 0 | 0 | 0 |
| O=S(=O)(NCCCN1c2ccccc2CCc2ccc(Cl)cc21)c1ccc(OC(F)(F)F)cc1 (2.5 µM) | 0 | 0 | 0 | 0 | 0 | 0 | 0 | 0 | 0 | 0 |
| N#CCC1CCN(c2nc(Nc3ccc(N4CCC(O)CC4)cc3)c3c(=O)[nH]ncc3n2)CC1 [Gusacitinib] (10 µM) | 0 | 0 | 0 | 0 | 0 | 0 | 0 | 0 | 0 | 0 |
| Cn1cc(-c2ccc3nnc(Sc4ccc5ncccc5c4)n3n2)cn1 (10 µM) | 0 | 0 | 0 | 0 | 0 | 0 | 0 | 0 | 0 | 0 |
| O=C(Nc1cn[nH]c1-c1ccccn1)c1nn(C2CCNCC2)cc1Cl (10 µM) | 0 | 0 | 0 | 0 | 0 | 0 | 0 | 0 | 0 | 0 |
| O=C(O)CCC(=O)Nc1ccc(Br)cn1 [Bikinin] (10 µM) | 0 | 0 | 0 | 0 | 0 | 0 | 0 | 0 | 0 | 0 |
| CC(=O)c1c(C)cc2cccc(O)c2c1O [Nepodin] (10 µM) | 0 | 0 | 0 | 0 | 0 | 0 | 0 | 0 | 0 | 0 |
| CCS(=O)(=O)Nc1ccc2[nH]c(O)c(C(=Nc3ccc(CN4CCCCC4)cc3)c3ccccc3)c2c1 [Hesperadin] (2.5 µM) | 3 | 0 | 0 | 0 | 0 | 0 | 0 | 0 | 1 | 1 |
| CCS(=O)(=O)c1ncc(Cl)c(C(=O)N(Cc2ccc(Cl)cc2)Cc2ccco2)n1 (2.5 µM) | 0 | 0 | 0 | 0 | 0 | 0 | 0 | 0 | 0 | 0 |
| CCN1CCN(Cc2ccc(Nc3ncc(F)c(-c4cc(F)c5nc(C)n(C(C)C)c5c4)n3)nc2)CC1 [Abemaciclib] (2 µM) | 0 | 0 | 0 | 0 | 0 | 0 | 0 | 0 | 0 | 0 |
| O=C([O-])c1cc2ccccc2c(Cc2c(O)c(C(=O)[O-])cc3ccccc23)c1O.[Na+].[Na+] [Pamoic acid (disodium)] (10 µM) | 0 | 0 | 0 | 0 | 0 | 0 | 0 | 0 | 0 | 0 |
| CCCS(=O)(=O)Nc1ccc(F)c(C(=O)c2c[nH]c3ncc(-c4ccc(Cl)cc4)cc23)c1F [Vemurafenib] (10 µM) | 0 | 0 | 0 | 0 | 0 | 0 | 0 | 0 | 0 | 0 |
| CCOc1ccc2cc(-c3nn(CC4CCN(C)CC4)c4ncnc(N)c34)ccc2n1 (10 µM) | 0 | 0 | 0 | 0 | 0 | 0 | 0 | 0 | 0 | 0 |

Part of the list above, bar-delimited.
SMILES | number of time points [1] | number of time points [2] | number of time points [3] | number of time points [4] | number of time points [5] | number of time points [6] | number of time points [7] | number of time points [8] | number of time points [9] | number of time points [10]
CN(C)CCSSCCNC(=O)C1CCN(C(=O)CSc2ccc(Cl)cc2)CC1 (10 µM) | 0 | 0 | 0 | 0 | 0 | 0 | 0 | 0 | 0 | 0
O=C(O)CCC(=O)Nc1ccc(Br)cn1 [Bikinin] (10 µM) | 0 | 0 | 0 | 0 | 0 | 0 | 0 | 0 | 0 | 0
